No constants are given. Whether binding was seen depends on the method and setting. Binding seen in cells or lysates may run through a third protein. Some entries that bind do so weakly or less than the wild type. Blank lines part the entries; values can stand above or below the molecule they belong to.
Assays:
[1] = target: GW182 (Glycine-Tryptophan Protein Of 182 KDa) (human (endogenous in Caco2)) (UniProt Q8NDV7); assay: proximity ligation; Duolink PLA on confluent, fixed Caco2 cells plated on laminin, fibronectin, collagen I or collagen IV; pairs of primary antibodies to the endogenous proteins; counterstained for E-cadherin; signals counted at junctions, in cytoplasm and nucleus
[2] = target: T1, p120 catenin (human (endogenous in Caco2)) (UniProt O60716); assay: as above
T1 sequence: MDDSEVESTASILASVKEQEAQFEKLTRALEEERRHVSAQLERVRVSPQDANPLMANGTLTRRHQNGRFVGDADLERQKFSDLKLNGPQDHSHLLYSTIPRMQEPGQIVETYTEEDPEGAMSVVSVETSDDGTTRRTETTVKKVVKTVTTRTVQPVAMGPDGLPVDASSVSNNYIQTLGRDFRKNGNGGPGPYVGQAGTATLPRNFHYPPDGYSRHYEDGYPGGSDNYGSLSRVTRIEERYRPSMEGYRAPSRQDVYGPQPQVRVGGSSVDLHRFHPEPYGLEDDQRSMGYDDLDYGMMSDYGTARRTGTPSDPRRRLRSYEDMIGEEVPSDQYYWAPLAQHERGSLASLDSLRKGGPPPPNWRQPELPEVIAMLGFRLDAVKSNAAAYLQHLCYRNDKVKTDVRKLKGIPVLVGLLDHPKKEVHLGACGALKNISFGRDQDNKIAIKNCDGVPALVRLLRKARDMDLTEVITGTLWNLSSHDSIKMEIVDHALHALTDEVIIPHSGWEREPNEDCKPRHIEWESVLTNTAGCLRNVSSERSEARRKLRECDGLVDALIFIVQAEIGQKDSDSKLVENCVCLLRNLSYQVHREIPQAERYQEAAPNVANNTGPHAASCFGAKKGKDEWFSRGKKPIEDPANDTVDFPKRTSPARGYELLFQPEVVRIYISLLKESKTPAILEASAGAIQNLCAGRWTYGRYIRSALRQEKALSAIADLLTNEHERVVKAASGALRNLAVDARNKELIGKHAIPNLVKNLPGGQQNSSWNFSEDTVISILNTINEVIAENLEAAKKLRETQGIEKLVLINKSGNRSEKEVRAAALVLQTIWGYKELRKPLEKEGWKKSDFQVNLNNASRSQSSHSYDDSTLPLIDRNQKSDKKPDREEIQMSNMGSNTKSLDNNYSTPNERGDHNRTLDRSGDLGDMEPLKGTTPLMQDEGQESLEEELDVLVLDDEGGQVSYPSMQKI

Amino acid sequences for entries named in this document (tags omitted).
UniProt Q8NDV7: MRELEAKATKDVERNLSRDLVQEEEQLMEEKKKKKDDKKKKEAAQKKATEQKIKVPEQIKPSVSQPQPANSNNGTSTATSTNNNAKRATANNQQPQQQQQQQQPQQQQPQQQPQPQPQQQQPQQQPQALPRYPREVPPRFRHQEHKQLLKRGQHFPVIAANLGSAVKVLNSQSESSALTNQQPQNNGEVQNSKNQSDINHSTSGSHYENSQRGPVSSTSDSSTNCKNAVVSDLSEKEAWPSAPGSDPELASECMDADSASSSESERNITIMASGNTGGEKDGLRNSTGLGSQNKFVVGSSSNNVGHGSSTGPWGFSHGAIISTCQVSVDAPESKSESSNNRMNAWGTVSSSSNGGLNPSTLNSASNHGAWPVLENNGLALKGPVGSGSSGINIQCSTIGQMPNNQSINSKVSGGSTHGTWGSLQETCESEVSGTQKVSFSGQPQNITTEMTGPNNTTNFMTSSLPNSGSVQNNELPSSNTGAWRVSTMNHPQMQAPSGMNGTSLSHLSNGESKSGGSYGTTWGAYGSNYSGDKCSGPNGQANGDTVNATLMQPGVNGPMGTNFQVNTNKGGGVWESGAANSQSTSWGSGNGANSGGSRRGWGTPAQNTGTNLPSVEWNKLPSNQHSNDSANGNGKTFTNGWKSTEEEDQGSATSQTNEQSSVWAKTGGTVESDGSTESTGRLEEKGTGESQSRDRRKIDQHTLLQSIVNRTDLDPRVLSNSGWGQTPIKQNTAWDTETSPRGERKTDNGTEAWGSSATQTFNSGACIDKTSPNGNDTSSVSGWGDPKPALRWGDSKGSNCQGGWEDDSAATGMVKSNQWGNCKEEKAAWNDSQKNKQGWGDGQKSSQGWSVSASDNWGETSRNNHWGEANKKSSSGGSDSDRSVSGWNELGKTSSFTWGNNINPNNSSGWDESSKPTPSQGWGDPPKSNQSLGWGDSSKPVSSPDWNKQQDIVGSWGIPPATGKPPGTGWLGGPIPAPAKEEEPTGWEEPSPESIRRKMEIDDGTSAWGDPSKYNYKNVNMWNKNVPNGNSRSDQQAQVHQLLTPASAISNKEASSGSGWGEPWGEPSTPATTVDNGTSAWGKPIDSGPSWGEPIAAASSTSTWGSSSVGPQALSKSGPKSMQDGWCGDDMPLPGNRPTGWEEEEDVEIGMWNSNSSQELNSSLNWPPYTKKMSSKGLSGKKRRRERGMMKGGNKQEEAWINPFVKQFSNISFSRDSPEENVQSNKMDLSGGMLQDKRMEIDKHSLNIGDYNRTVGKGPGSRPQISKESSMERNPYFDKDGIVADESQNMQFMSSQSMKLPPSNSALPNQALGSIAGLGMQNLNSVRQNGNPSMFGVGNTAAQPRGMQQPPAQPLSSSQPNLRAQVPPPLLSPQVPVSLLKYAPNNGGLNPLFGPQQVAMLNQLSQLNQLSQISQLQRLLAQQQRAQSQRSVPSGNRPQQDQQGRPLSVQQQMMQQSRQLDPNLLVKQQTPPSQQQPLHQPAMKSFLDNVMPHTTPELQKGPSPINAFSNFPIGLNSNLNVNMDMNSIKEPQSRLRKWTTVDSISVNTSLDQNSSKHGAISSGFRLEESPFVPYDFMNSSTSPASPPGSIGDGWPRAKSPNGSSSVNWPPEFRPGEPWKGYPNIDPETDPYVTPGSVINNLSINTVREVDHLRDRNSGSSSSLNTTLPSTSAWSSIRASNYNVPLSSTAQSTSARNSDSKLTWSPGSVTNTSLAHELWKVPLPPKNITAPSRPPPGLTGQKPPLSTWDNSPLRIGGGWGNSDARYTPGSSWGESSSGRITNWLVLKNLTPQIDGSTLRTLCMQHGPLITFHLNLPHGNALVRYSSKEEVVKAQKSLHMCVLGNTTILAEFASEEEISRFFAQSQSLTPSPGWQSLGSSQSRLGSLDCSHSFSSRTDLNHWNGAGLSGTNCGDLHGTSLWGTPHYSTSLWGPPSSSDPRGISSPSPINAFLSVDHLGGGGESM
UniProt Q9UKV8: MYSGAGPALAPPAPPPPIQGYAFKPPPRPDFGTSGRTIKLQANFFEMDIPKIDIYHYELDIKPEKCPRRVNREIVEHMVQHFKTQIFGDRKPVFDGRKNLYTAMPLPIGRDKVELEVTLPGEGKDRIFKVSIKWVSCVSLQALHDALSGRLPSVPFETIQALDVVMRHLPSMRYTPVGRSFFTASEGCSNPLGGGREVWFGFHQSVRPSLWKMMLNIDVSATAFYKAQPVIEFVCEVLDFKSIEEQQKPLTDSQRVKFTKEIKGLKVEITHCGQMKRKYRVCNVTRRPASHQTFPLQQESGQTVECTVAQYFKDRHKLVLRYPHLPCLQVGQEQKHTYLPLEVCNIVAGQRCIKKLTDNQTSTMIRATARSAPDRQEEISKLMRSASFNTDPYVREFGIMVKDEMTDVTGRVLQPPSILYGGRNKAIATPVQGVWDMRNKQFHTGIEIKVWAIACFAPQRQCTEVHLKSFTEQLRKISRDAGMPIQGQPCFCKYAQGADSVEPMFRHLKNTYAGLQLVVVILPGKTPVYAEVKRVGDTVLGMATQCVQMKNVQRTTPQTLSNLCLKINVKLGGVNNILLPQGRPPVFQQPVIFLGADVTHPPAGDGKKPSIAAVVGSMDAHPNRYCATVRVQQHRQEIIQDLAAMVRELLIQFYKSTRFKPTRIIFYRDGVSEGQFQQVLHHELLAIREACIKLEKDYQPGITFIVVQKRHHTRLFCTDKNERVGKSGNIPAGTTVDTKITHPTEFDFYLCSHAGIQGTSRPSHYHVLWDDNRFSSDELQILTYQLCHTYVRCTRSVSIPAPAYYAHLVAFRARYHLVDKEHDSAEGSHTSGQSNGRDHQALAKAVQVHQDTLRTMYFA

binding [1]: binds
Molecule: Argonaute 2 (AGO2) (from UniProt Q9UKV8 1-859)

binding [2]: binds
B1: PLEKHA7 (Pleckstrin homology domain-containing family A member 7) (protein, UniProt Q6IQ23 1-1121)
chain: MAAATVGRDTLPEHWSYGVCRDGRVFFINDQLRCTTWLHPRTGEPVNSGHMIRSDLPRGWEEGFTEEGASYFIDHNQQTTAFRHPVTGQFSPENSEFILQEEPNPHMSKQDRNQRPSSMVSETSTAGTASTLEAKPGPKIIKSSSKVHSFGKRDQAIRRNPNVPVVVRGWLHKQDSSGMRLWKRRWFVLADYCLFYYKDSREEAVLGSIPLPSYVISPVAPEDRISRKYSFKAVHTGMRALIYNSSTAGSQAEQSGMRTYYFSADTQEDMNAWVRAMNQAAQVLSRSSLKRDMEKVERQAVPQANHTESCHECGRVGPGHTRDCPHRGHDDIVNFERQEQEGEQYRSQRDPLEGKRDRSKARSPYSPAEEDALFMDLPTGPRGQQAQPQRAEKNGMLPASYGPGEQNGTGGYQRAFPPRTNPEKHSQRKSNLAQVEHWARAQKGDSRSLPLDQTLPRQGPGQSLSFPENYQTLPKSTRHPSGGSSPPPRNLPSDYKYAQDRASHLKMSSEERRAHRDGTVWQLYEWQQRQQFRHGSPTAPICLGSPEFTDQGRSRSMLEVPRSISVPPSPSDIPPPGPPRVFPPRRPHTPAERVTVKPPDQRRSVDISLGDSPRRARGHAVKNSSHVDRRSMPSMGYMTHTVSAPSLHGKSADDTYLQLKKDLEYLDLKMTGRDLLKDRSLKPVKIAESDTDVKLSIFCEQDRVLQDLEDKIRALKENKDQLESVLEVLHRQMEQYRDQPQHLEKIAYQQKLLQEDLVHIRAELSRESTEMENAWNEYLKLENDVEQLKQTLQEQHRRAFFFQEKSQIQKDLWRIEDVTAGLSANKENFRILVESVKNPERKTVPLFPHPPVPSLSTSESKPPPQPSPPTSPVRTPLEVRLFPQLQTYVPYRPHPPQLRKVTSPLQSPTKAKPKVEDEAPPRPPLPELYSPEDQPPAVPPLPREATIIRHTSVRGLKRQSDERKRDRELGQCVNGDSRVELRSYVSEPELATLSGDMAQPSLGLVGPESRYQTLPGRGLSGSTSRLQQSSTIAPYVTLRRGLNAESSKATFPRPKSALERLYSGDHQRGKMSAEEQLERMKRHQKALVRERKRTLGQGERTGLPSSRYLSRPLPGDLGSVC

Source: publication PMC9737857
